Test results from the supplement of paper PMC12819154, “High-throughput peptide-centric local stability assay extends protein–ligand identification to membrane proteins, tissues and bacteria” (Nature Structural & Molecular Biology, 2025).
The other results are listed elsewhere or left out. Most entries show no effect beyond the scatter of the controls.

By UniProt entry, the sequences of proteins in these tests, tags left out. Where a name states a change or a piece, a line headed by the entry shows the natural chain unless it says otherwise.
UniProt P59017, whole entry: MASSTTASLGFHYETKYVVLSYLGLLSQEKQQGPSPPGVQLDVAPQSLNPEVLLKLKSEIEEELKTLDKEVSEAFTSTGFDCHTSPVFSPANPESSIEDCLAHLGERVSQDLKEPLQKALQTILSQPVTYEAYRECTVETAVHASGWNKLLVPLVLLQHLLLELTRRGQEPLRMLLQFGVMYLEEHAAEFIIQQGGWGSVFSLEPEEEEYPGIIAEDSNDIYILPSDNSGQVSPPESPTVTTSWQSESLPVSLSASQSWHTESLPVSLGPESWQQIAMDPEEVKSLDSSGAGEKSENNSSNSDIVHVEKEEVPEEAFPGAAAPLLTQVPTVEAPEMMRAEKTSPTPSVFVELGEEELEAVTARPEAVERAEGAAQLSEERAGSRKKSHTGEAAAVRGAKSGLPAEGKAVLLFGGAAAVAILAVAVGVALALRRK
UniProt P56695: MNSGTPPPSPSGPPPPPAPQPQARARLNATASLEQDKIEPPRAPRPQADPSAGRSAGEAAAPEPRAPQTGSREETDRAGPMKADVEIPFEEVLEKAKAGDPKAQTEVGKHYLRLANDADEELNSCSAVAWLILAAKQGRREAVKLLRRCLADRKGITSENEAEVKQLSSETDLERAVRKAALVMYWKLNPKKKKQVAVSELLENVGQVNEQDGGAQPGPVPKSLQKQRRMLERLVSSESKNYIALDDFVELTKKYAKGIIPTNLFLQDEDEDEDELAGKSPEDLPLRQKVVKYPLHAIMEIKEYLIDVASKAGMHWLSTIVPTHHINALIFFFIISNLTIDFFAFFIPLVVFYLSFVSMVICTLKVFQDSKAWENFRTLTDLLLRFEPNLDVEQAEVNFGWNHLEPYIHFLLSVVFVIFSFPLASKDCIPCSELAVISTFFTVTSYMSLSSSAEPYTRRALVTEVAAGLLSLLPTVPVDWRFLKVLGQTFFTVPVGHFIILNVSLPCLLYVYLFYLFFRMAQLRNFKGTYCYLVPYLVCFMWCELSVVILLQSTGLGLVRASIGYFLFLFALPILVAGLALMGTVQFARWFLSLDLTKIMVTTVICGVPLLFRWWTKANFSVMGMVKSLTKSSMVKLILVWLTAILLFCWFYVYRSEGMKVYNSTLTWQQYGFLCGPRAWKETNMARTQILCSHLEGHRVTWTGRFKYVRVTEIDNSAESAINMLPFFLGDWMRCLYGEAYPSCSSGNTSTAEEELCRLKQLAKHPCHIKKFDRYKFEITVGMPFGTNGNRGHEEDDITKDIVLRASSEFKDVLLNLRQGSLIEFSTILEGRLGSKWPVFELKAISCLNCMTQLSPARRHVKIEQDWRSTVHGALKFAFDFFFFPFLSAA
UniProt P63089: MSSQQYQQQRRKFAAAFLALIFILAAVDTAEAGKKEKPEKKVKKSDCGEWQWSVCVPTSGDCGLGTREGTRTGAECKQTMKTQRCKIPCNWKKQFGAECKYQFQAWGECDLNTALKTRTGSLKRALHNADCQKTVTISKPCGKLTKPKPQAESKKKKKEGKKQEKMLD
UniProt P59997: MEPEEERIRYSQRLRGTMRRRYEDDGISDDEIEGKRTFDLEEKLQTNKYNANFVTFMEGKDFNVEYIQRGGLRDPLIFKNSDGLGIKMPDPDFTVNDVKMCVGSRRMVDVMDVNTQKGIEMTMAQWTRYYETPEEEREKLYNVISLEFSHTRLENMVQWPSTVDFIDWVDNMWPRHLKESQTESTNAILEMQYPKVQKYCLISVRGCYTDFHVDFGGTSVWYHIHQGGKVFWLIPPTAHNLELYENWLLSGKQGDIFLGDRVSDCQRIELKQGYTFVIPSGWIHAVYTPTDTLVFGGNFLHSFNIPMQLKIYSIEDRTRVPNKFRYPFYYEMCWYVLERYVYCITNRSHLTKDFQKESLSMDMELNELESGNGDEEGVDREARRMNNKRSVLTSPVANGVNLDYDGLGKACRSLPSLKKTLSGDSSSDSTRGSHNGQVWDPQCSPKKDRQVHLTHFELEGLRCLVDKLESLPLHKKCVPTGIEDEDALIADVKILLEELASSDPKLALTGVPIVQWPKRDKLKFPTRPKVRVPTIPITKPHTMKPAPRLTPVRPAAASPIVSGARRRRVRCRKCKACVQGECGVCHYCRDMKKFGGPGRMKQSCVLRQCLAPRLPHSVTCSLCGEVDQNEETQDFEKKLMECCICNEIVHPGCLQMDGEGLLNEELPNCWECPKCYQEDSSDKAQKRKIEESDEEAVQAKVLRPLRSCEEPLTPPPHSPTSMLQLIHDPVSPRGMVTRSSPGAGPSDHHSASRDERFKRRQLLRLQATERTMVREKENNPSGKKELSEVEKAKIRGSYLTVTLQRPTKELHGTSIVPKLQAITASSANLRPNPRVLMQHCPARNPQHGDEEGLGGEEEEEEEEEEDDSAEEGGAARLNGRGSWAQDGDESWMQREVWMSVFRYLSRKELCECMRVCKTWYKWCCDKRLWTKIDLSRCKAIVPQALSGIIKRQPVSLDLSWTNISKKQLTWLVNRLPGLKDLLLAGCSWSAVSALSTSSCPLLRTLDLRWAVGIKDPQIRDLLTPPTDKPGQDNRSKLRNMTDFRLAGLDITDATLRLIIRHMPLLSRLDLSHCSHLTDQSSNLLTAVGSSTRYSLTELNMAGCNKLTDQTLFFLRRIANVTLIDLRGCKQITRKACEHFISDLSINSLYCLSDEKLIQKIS
UniProt P55088, whole entry: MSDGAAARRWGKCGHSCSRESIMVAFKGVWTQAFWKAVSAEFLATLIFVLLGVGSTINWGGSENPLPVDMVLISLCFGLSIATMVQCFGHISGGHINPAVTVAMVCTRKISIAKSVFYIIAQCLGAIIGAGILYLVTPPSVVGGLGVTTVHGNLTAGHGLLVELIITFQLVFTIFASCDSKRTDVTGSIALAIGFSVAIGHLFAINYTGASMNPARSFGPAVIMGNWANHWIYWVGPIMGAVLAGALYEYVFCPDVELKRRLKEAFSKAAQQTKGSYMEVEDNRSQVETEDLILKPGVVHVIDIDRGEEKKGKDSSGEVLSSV

compound: CN[C@@H]1C[C@H]2O[C@@](C)([C@@H]1OC)n1c3ccccc3c3c4c(c5c6ccccc6n2c5c31)C(=O)NC4 [staurosporine]; test: log2 fold change of tryptic peptide abundance, ligand vs vehicle (limited proteolysis) (log2 ratio); higher = more trypsin-susceptible (destabilized); settings: ligand concentration: 20 uM; sample: mouse liver crude lysate; replicate design: treated separately

Row | Target | log2 fold change
1 | UniProt P59017 (peptide sequence: SEIEEELK, peptide start residue: 58) | -0.341
2 | UniProt P56695 (peptide sequence: AALVMYWK, peptide start residue: 180) | 0.37
3 | UniProt P63089 (peptide sequence: TVTISKPCGK, peptide start residue: 134) | -0.224
4 | UniProt P59997 (peptide sequence: ELHGTSIVPK, peptide start residue: 809) | 0.362
5 | UniProt P55088 (peptide sequence: GSYMEVEDNR, peptide start residue: 275) | -0.117
